In patent US5093477A (priority 1988, dated 1992):
HELM strings list residues between dots; [ac] is acetyl, [am] amide, other brackets name non-standard units.

Key:
[1] = general procedure: Fmoc solid-phase peptide synthesis; amide anchoring resin; Fmoc-amino acid OObt esters or HOBt esters activated in situ with diisopropylcar; settings: whole synthesis, scale 500 mg resin
[2] = general procedure: Fmoc solid-phase peptide synthesis; Fmoc-Ile-benzyloxybenzyl alcohol-resin; Fmoc-amino acid OObt esters or HOBt esters activated in situ with diisopropylcar; settings: whole synthesis, scale 5 g resin (0.43 mmol/g)

Substance | crude mass [1] [mg] | isolated mass [1] [mg] | crude mass [2] [g] | isolated mass [2] [mg]
H-Val-Ser-Gln-Asn-Tyr-Opr-Ile-Val-Gln-OH | 260 | 69 |  | 
PEPTIDE1{S.F.N.F.P.Q.I}$$$$V2.0 |  |  | 1.13 | 323
PEPTIDE1{V.S.Q.N.Y.P.I.V.Q}$$$$V2.0 | 236 | 142 |  | 
